Data reported in US20230355549A1, “METHOD OF PREVENTING KIDNEY INJURY DISRUPTION OF INTESTINAL LYMPHATICS” (Vanderbilt University, priority 2020, published 2023).

Tested on: Sprague Dawley rats
Format: in vivo, rat
Details: PAN rats; not significant vs Cont
Experimental: Adult male Sprague Dawley rats (200-225 g, Charles River) were housed under a 12-h light/dark cycle with free access to normal rat chow and water. Kidney injury was induced by a single injection of puromycin […] (PAN) (125 mg/kg body weight, i.p.) while saline-injected rats served as controls (Cont). Eight days after injection, rats were sacrificed and blood, urine, and tissues were harvested. We also studied adult male (12 weeks old) Nphs1-hCD25 transgenic (NEP25, C57 bl/6 background) mice expressing human CD25 on podocytes can be selectively injured by injection of recombinant immunotoxin, anti-Tac (Fv)-PE38 (LMB2, 1 ng/g BW, i.v. generously provided by Dr. Ira Pastan) that results in proteinuria. […]
Albumin (Exocell), apoAI (Mybiosource), sphingosine-1 phosphate (S1P) (Mybiosource) and VEGF-C levels (Mybiosource) were measured by ELISA. Albuminuria was measured as urine albumin-to-creatinine ratio (ACR) (Nephrat II, Exocell) and QuantiChrom™ Creatinine Assay Kit (Bioassay Systems), respectively. Plasma and lymph total cholesterol and triglycerides were measured enzymatically (Cliniqa). […] Lipoprotein particle size was evaluated by NMR methodology (Liposcience). […] Total IsoLG-protein adduct by LC/MS was measured as IsoLG-lysine after complete proteolytic digestion of lymph samples.

CN(C)c1ncnc2c1ncn2[C@@H]1O[C@H](CO)[C@@H](N)[C@H]1O [PAN, puromycin aminoglycoside]
ileal apoAI protein level: 1.06 ± 0.06 µg/mg
